Usually AC50 stands for the concentration at which the activity in the assay is half-maximal.

The list shows a part of the results. These are further read-outs of the screen, such as a control signal, another cell line or another target. No call is given for them. Most of these compounds were active or inconclusive in the main read-out, so they are no random draw. The note in brackets gives the kind of curve behind each potency; many fits are weak.

A short description of this assay: qHTS Assay for Lipid Storage Modulators in Drosophila S3 Cells.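 As to cell number change: cells counted by Cell Tracker Red CMTPX staining in the red channel.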 The note with it: BODIPY lipid droplet fluorescence, 18-24 h; for cell number change: measured here: cell count max response, cells fed with added oleic acid. In short, it runs like this: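 Drosophila S3 cells got compounds at several concentrations plus oleic acid (400 uM solution). Laser-scanning cytometry with 488 nm excitation read lipid droplets at 500-530 nm and cells at 575-640 nm. Percent activity was relative to 20 uM Triacsin C.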

The mark [1] stands for this setting: measured here: lipid fluorescence (Fed channel) AC50, cells fed with added oleic acid.
[2] abbreviates: measured here: cell number channel AC50, cells fed with added oleic acid.

For the compound `CCCNC(=O)c1ccccc1C(=O)NCCC`, the cell number change was -6.92%. Besides, the concentration at half-maximal activity (AC50) under setting [1] is 9.2 µM [falling, partial curve, poor fit].
Regarding `CCn1cc(C(=O)N2CCN(C3CCCCC3)CC2)c2cc(OC)c(OC)cc2c1=O`, the cell number change came out at 139%. The AC50 under setting [2] was 9.2 µM [rising, partial curve].
For `Cc1ccc(OCCC(=O)OCC(=O)NC(=O)c2ccccc2)cc1`, the cell number change amounted to 22%.
The same measure, in the same setting: next, `CCOc1ccc(N(CC(=O)NC2CCCCC2)C(=O)CCC(=O)Nc2ccccn2)cc1`: 15.4%.
With `Fc1ccc(-c2nnc(-c3ccc(Cl)cc3)o2)cc1`, the cell number change is 1.08%. Besides, the AC50 under setting [2] was 0.058 µM [falling, full curve, poor fit].
`CC(C(=O)N1CCCC1)N1CCN(S(=O)(=O)c2ccc(C(C)(C)C)cc2)CC1` (stereo not drawn): the cell number change was -0.129%. The AC50 under setting [1] is 29.1 µM [rising, single point].
In the case of `CCCCC(=O)Nc1ccc(S(=O)(=O)Nc2nccc(C)n2)cc1`, the cell number change was -43.9%. Moreover, the half-maximal activity concentration (AC50) under setting [2] was 29.1 µM [falling, single point]. The AC50 under setting [1] was 29.1 µM [falling, single point].
With `CCCNC(=O)c1ccc(N2CCC3(CC2)CC(c2ccccc2)=NO3)c(NC(=O)c2ccccc2)c1`, the cell number change was found to be 41%. The AC50 under setting [2] is 18.4 µM [rising, single point]. Besides, under setting [1], the concentration at half-maximal activity (AC50) is 29.1 µM [falling, single point].
Consider `Cc1ccc(N(C(=O)c2ccccn2)C2(C(=O)NC3CCCC3)CCCCC2)cc1`, for which the cell number change is -95.8%. Besides, the AC50 under setting [2] was 16.4 µM [falling, partial curve]. Moreover, the AC50 under setting [1] was 3.66 µM [falling, full curve].
Turning to `COc1ccc(C2CC(c3cccs3)=NN2C(=O)CSc2nc(=O)n3ccccc3n2)cc1` (stereo not drawn), the cell number change is 42.7%.
In the case of `O=C(NCC1CCCO1)C1CCCN(S(=O)(=O)c2ccc(F)cc2)C1` (stereo not drawn), the cell number change worked out at 10.6%. Moreover, the AC50 under setting [1] was 29.1 µM [falling, single point].
As for `CCN(Cc1ccc2c(c1)OCCO2)C(=O)CN1C(=O)NC2(CCCCC2)C1=O`, the cell number change is -4.42%. For the same compound, the AC50 under setting [1] was 29.1 µM [rising, single point].
`Nc1nc2c(c(=O)[nH]1)C(c1cccc3ccccc13)C1=C(N2)c2ccccc2C1=O` (stereo not drawn): the cell number change was -42.3%. The AC50 under setting [2] is 20.6 µM [falling, single point]. For the same compound, the AC50 under setting [1] was 8.2 µM [falling, partial curve].
For `CCN(CC)S(=O)(=O)c1ccc(C(=O)NCc2cccs2)cc1`, the cell number change was -15.1%. In addition, the AC50 under setting [2] is 0.0291 µM [falling, full curve]. Besides, the AC50 under setting [1] was 0.00517 µM [falling, full curve, poor fit].
`O=C(O)CCCC(=O)Nc1ccc(-n2ccc(C(F)(F)F)n2)cc1`: the cell number change was -19.4%.
With `Cc1ccc(S(=O)(=O)N2CCCCC2)cc1NC(=O)COC(=O)C1(C)CC1(Cl)Cl` (stereo not drawn), the cell number change was -14.3%.
Consider `CCn1cc(Cl)c(C(=O)Nc2ccccc2C(N)=O)n1`, for which the cell number change is -9.6%. In addition, under setting [1], the AC50 is 0.259 µM [rising, full curve, poor fit].
`CC1CCC(NC(=O)CCS(=O)(=O)c2ccc3c(c2)NC(=O)CO3)CC1` (stereo not drawn): the cell number change was determined as 16.4%.
Still for that read-out and setting: as for `CCC(C)N1CC23C=CC(O2)C(C(=O)OC)C3C1=O` (stereo not drawn), the figure is -2.7%.
Turning to `CCOC(=O)C1=C(CCc2ccccc2)NC(=O)NC1c1ccc2ccccc2c1` (stereo not drawn), the cell number change was 8.38%. Moreover, the AC50 under setting [1] was 29.1 µM [falling, single point].
As for `CCOc1cc2c3c(c1)C(C)=CC(C)(C)N3C(=O)C2=O`, the cell number change was -0.653%. The AC50 under setting [1] is 4.11 µM [falling, full curve, poor fit].
Take `CCOCCCNC(=O)c1cc(Cl)c(NC(=O)C2=C(C)OCCS2)cc1OC`: the cell number change was 10.6%. Under setting [1], the AC50 was 0.116 µM [rising, full curve, poor fit].
Regarding `CCOc1ccc(N2C(=O)CC(/C=C3/N(C)c4ccccc4C3(C)C)C2=O)cc1` (stereo not drawn), the cell number change was 13.1%. In addition, the AC50 under setting [1] was 6.51 µM [falling, single point].
For `COC(=O)C1=C(C)NC(=O)NC1c1ccccc1` (stereo not drawn), the cell number change was -6.71%. Besides, under setting [2], the AC50 is 0.00517 µM [falling, full curve, poor fit].
Take `Fc1ccc(CSc2nc3ccccc3[nH]2)cc1`: the cell number change came to 2.4%.
Regarding `Cc1c(NC2=C(Cl)C(=O)N(c3ccccc3)C2=O)c(=O)n(-c2ccccc2)n1C`, the cell number change came to 10.9%. Moreover, the AC50 under setting [1] is 20.6 µM [rising, single point].
As for `O=C(COC(=O)c1cccc(Cl)c1Cl)NC1CCCC1`, the cell number change worked out at 12%. Also, under setting [1], the AC50 is 6.51 µM [rising, full curve, poor fit].
Turning to `CCc1ccc(NC(=O)c2cnc3scc(C)n3c2=O)cc1`, the cell number change came out at 16.7%. The AC50 under setting [2] was 0.517 µM [rising, full curve, poor fit].
Turning to `CCC(c1nnnn1CCc1ccccc1)N(Cc1ccco1)Cc1cc2c(C)ccc(C)c2[nH]c1=O` (stereo not drawn), the cell number change is -20.9%. For the same compound, under setting [1], the AC50 is 11.6 µM [falling, partial curve].
As to `c1ccc(NCc2nnc3n2CCCCC3)cc1`, the cell number change is -3.28%.
Consider `COc1ccc(-c2cc3c(=O)n(CC(=O)Nc4ccc(C(C)=O)cc4)ncn3n2)cc1`, for which the cell number change was -4.13%. Under setting [2], the concentration at half-maximal activity (AC50) is 3.26 µM [rising, single point]. In addition, the half-maximal activity concentration (AC50) under setting [1] is 6.51 µM [rising, partial curve, poor fit].
On to `Cc1ccc(C2=NN(S(C)(=O)=O)C(c3ccc4nccnc4c3)C2)cc1` (stereo not drawn), for which the cell number change came to 40.2%. Under setting [2], the AC50 was 1.84 µM [rising, full curve, poor fit]. Moreover, the AC50 under setting [1] is 29.1 µM [rising, partial curve, poor fit].
Take `CCn1c(SCC(=O)Nc2cc(C)on2)nnc1-c1ccc(S(=O)(=O)N2CCN(C)CC2)cc1`: the AC50 under setting [1] is 6.51 µM [rising, single point].
For the compound `O=C(Nc1cccc(S(=O)(=O)N2CCCC2)c1)c1cc(=O)[nH]c2ccccc12`, the cell number change stood at 10.2%.
Turning to `CCOC(=O)C(C(=O)Nc1cccc(C)c1)C1CCCCC1` (stereo not drawn), the concentration at half-maximal activity (AC50) under setting [2] was 2.31 µM [rising, single point].
For `COc1ccc(OC)c(C2=NS(=O)(=O)N(C)C(C(=O)NCc3ccco3)=C2)c1`, the cell number change is -26%.
With `CC(C)CNC(=O)c1cccc(NC(=O)c2ccc3c(c2)C(=O)N(C)C3=O)c1`, the cell number change is -30.4%. Further, the AC50 under setting [2] is 8.2 µM [falling, partial curve, poor fit]. Moreover, the AC50 under setting [1] was 5.8 µM [falling, single point].
Regarding `O=C(CCCc1ccccc1)NC1CC1`, the cell number change is -3.44%. Also, under setting [1], the half-maximal activity concentration (AC50) is 0.146 µM [falling, full curve].
In the case of `CC(=O)N/C(=C\c1ccc(F)cc1)C(=O)NC(C(=O)O)C(C)C` (stereo not drawn), the cell number change was -21.8%. Besides, the AC50 under setting [1] is 0.58 µM [falling, full curve, poor fit].
